Among the data in PubChem BioAssay AID1347423 (Functional Genomics Laboratory (NCATS/FGL), 2020) are z-score values, retold here.

The whole screen tested about 52,000 sequences, of which about 210 (0.4%) were called active.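 The calls were made as follows: active = gene whose silencing raises cell survival under the drug, median off-target-corrected z-score across its silencing RNAs 2 or more; inactive = the rest.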 The list shows a part of the results.

This test is described as follows: Resistance to Poly (ADP-Ribose) Polymerase inhibitor: Gene Identification via Genome-wide siRNA Screen. Conditions: mouse BRCA2 R2336H ES cells, olaparib, CellTiter-Glo viability; stronger effect = higher value. The gist of the method: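 Genome-wide siRNA screen (3 siRNAs/gene, 20 nM) in mouse ES cells carrying hypomorphic BRCA2 R2336H; olaparib 500 nM added 48 h post-transfection, CellTiter-Glo viability 72 h later. Normalized to plate-median negative control; MAD z-scores, gene median, seed-adjusted.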
A general note: In ATP-based viability assays light output follows the ATP content of the culture.
For GGAAGACAGGGACAAUACCTT against Car15, the z-score is inactive: -0.633. In the case of CGAGUGUUGAAUAUUGUGATT against Gpr65, the z-score was inactive: 0.641. Under GCCAGCUACUCUCUUGAGATT against Olfr419 stands inactive: -0.708. Under “GGAUGUAUCUGGAGAAUUUTT against 1110019C08Rik” stands inactive: 0.175; under GGGCAUCAUGAAACUAUGUTT against Kbtbd4, inactive: 1.11.

CGCAGAUAAUAUCUUUGUCTT against Olfr461: the z-score is inactive: -0.173. In the case of “GGGAAGUCCAAAUAACGGATT against 4930500C15Rik”, the z-score is inactive: -0.301. As for CCUACCCUACUAAUGAAUUTT against Cldn4, the figure is inactive: 1.46; as for GCUUUUAUACACUUCCCUCTT against Nmt1, inactive: 1.12. As for CCAGCGACUACAGCAAAUATT against Gcg, the figure is inactive: -1.67; as for GCCUUAUCAGGGUUAAUGGTT against Ipo4, inactive: -0.845.

Take CCAGAUACCCAUAAUAUCUTT against Mbnl1: the z-score was inactive: -0.477. On to GGGUCAUUUUUUAGCCUUCTT against V1rj2, for which the z-score is inactive: -0.97. As for “GGCGUAAUUUUGAUUCAGUTT against 2410018C17Rik”, the figure is inactive: -0.0355. Under “GCGUAACUACUACAUGAAUTT against 5430425C04Rik” stands inactive: 1.46; under “CCCAUUCAAGCACUUAUGGTT against 2610318K02Rik”, inactive: -0.653; under CGGUUCUUUUACCAAGAUCTT against Jak3, inactive: 0.655. Under “GGUGUAUGGACCAUUUUAUTT against E430026E19Rik” stands inactive: 0.87; under GGAAGUCUUAGAAGUAGCCTT against Diap3, inactive: 0.546; under GCCAAUCUCAAGAUGAAGCTT against Emid2, inactive: -0.712. For GGUCUUCCUGGUUCAGCUUTT against Pold4, the z-score was inactive: 0.588. As for GCAUAACAAGCAACUUAAGTT against Bms1l, the figure is inactive: -2.5; as for GCGCAGUUUCAAGGAACUGTT against Kcnf1, inactive: 0.782. As for “CCUGACACUUAUUCUCGGGTT against 5330416C01Rik”, the z-score was inactive: 0.032. As for GGAGCUGGAUGGUGUUGGUTT against Prom2, the figure is inactive: -1.78; as for GGUAGAGGAUUUACUGAGCTT against Creb3, inactive: 0.00692; as for “CCCUGCUUCGUGUGCUAUUTT against C130074G19Rik”, inactive: -1.31. Regarding GGAAACUUUACUUUCAUGGTT against Kcnma3, the z-score is inactive: 2.14. As for GGUUAUCUUCUUGACAGAATT against Nmur2, the figure is inactive: -0.599. On to “CCAGUUAAACACAUUAGCCTT against 1200013A08Rik”, for which the z-score was inactive: -0.447. Under GGAUAACAGUAAAUGGCUUTT against Zfp192 stands inactive: 1.36; under GGAUUUGUUCGACCAGAUUTT against Epb4.1l4b, inactive: -2.85.

For GGAGGAAAUCCAAGAACUUTT against Fgfr1op2, the z-score was inactive: -1.13. Under GGAGCAGAUUCGGAAGAAATT against Nr1h2 stands inactive: 0.656; under GCAUCAAAGGUCUGAGACUTT against Pdzx, inactive: -2.33; under GCUUUUUGCAUUGACUGGATT against Usp14, inactive: 0.474. As for GGACUUUUACAUUGAGUCCTT against Shprh, the figure is inactive: -0.725. As for GGCAGGUAUGGAUGUAUUGTT against Renbp, the figure is inactive: -1.33; as for CCAACUGCACUGUCAAACUTT against Tbcc, inactive: -0.0519; as for CCAACAGGGAGUGUUGAUUTT against Oas1b, inactive: 0.573. Turning to GCAUGUAUAGCCACUUUUGTT against Ifna6, the z-score was inactive: -0.801. Take “GGAAAUCCUGCCAUCAAACTT against 1110001A12Rik”: the z-score is inactive: 0.774. As for CGCGCCCGUCAAAUUUGAUTT against AI847670, the figure is inactive: 0.563; as for CGAAGAGAUCUCACUAUAATT against Trnt1, inactive: 0.481. Consider GCAGUAUGUAAACCCUUACTT against Olfr1463, for which the z-score was inactive: -2.43. GCAAGUUAUCCAGCACUCATT against Ylpm1: the z-score was inactive: -1.57.

Take GCCUGUAUGAGCUCACUGUTT against Fbxo2: the z-score was inactive: -0.656. As for GGUACACACUGUGUGGCUUTT against Paqr4, the figure is inactive: -0.166; as for GGUACGAGAACAACUGACUTT against Pte2a, inactive: -0.847. Under “UAAUCAUGAGCUCUUCCGATT against MGI:2684414” stands inactive: 1.53; under CCUUCUUUAUAGGUAUGACTT against BC025816, inactive: -0.126. As for “GGGAGAGCACAGAUGUGGATT against 5830472H07Rik”, the figure is inactive: 1.23.

In the case of “GGCAAAGUGUCCCUCCGAATT against C130057D23Rik”, the z-score is inactive: 2.03.

As to GGUGAAAUCCAUUAAAGAATT against Fth1, the z-score was inactive: 1.36. Under GCAACUUUAAUGACAGCGUTT against Moxd1 stands inactive: -0.598.

As for CCCACCUAGCAUACGACUATT against Kazald1, the z-score was inactive: -0.209. As for GGCUUUUGAAGUAAAUACATT against Pcdhb14, the figure is inactive: 0.332; as for GGUGUUAGCUUCUCAAAAUTT against Tmem27, inactive: 0.34; as for “GGAGUGCUGAUAAAAGAAGTT against 2010107E04Rik”, inactive: -1.2. For the sequence GGAACUGCCAGUUGACAUUTT against Olfr689, the z-score was inactive: -0.199. Under GGCAACAUCACUGAGUAUCTT against Glg1 stands inactive: 0.951; under CCACCUUUCGUUGUUACAATT against Stk36, inactive: -1.14. Under GGUGACAUUUGAAAAUGUCTT against Slc25a12 stands inactive: 0.652.

As to GGCAUCUUUGGAGACUGGUTT against Sycn, the z-score was inactive: -0.929. Regarding CCGAGUGGUGAGUCUUCUUTT against Olfr629, the z-score is inactive: -0.272.

Turning to “GCAGAGCGGUAAUCUAUCUTT against 5031410I06Rik”, the z-score is inactive: 1.14. For the sequence CCUCUCCUCUAUUCAACACTT against Olfr472, the z-score was inactive: 1.48. GGCCAAAAAUGAAAGAAAUTT against Myo15: the z-score was inactive: -0.962.

For CCCUGUUGCUGACAUUUAUTT against Wasf3, the z-score is inactive: -0.166. As for GGUUGACACUCUGAGGGAATT against Pld2, the figure is inactive: -0.618; as for GGUCUAUCGCUUGCUUUUUTT against Abca2, inactive: -0.086. Turning to GGUAGAACAACAGAACAAUTT against Myo5b, the z-score is inactive: -0.895. As for GGACCUUUUGUCUAUAAUGTT against Arl7, the figure is inactive: -1.84. Under CCACUUCAGUAUUUGGCUUTT against T2R37 stands inactive: -0.456; under GGGUCAUGAAGUGAUGGUUTT against AI788959, inactive: 1.41.

In the case of CGGAUUCGUCUGUUUUCUGTT against Ddi2, the z-score was inactive: 0.806.

“GCUGAGAGGUAAAGACACATT against 1700051C09Rik”: the z-score is inactive: -0.623. As for GGAACGUAAACUAAGCCCGTT against Foxb1, the figure is inactive: 1.01; as for “GGAAUACGUAUACUUCAGCTT against B230399E16Rik”, inactive: 1.37; as for GGAGAGAGACACAAGCUUGTT against BC019977, inactive: 0.55. As for GGGUUAGAGUAAGGUAUUATT against Tsn, the z-score was inactive: -0.569.

For the sequence GCAGUUAUUCUGAGAGUGATT against Olfr1385, the z-score was inactive: -0.193.

With “GGAAGAUGACAAGAUCUAUTT against 2810428C21Rik”, the z-score is inactive: -1.12. As for GGGACAAAACCUUGAUGGUTT against V1rh3, the figure is inactive: 0.22.

Take GGAAUAAUUUCACUGACUUTT against Hint3: the z-score is inactive: -0.796. As for GGAUAACAGAGAUUUCUCCTT against Il15ra, the z-score is inactive: 1.29. As for GGGUUUGGGCUUCAACAUCTT against Lin7b, the figure is inactive: 0.799; as for GCAUCAACAAUCAAAGUUGTT against Sema3c, inactive: -0.0674; as for “GCAAUUGUCAUUAGUUUUGTT against 4432416J03Rik”, inactive: 0.589.

Take GCAUCGUCUAUCAGCUGAUTT against Rraga: the z-score was inactive: 0.662.

With GGCAUGAGACAAGCUAGUCTT against Mrgpre, the z-score was inactive: -1.04. Under CCCAAACAGACUAGAUCCGTT against Rab20 stands inactive: -1.16; under GUCUGAACUUCUUAGCAUCTT against Uchl4, inactive: 0.101. As for GGCAGAUUCAGACCUUCGATT against Sult1c2, the figure is inactive: -0.055; as for GGAUCGUAGCUACAGCCAATT against AA691260, inactive: 0.588; as for GCAUCACACAGAAUAUGUUTT against F10, inactive: -0.688. As for GCCAUUAUGACAGAACGCATT against Adra1d, the figure is inactive: 1.93. On to GGAUAACCUAAUGUAGAUATT against Nphs2, for which the z-score was inactive: 1.1. As for GGAGAGAAAGAAGUUGUUGTT against Lcn5, the figure is inactive: 2.43; as for CGAGGGCCUGAAAAACCUGTT against Hbb-b2, inactive: -1.17; as for GGUCAUGGAUCAGAAAGAATT against Hnrpd, inactive: -0.934.

For the sequence “GGUUCUCACGCGGUUUUUGTT against D430024F16Rik”, the z-score is inactive: 0.6. As for GCAGAGGUACGUGUUUGACTT against Gdf5, the figure is inactive: -0.0517. Under “GGCGAGAACAGUUUGAGUUTT against 1700111A04Rik” stands inactive: -0.414.
